According to patent publication US20060148703A1:

Biological target: T1, self-assembling peptide nanofibers (peptide sequence AcN-…-CNH2)
T1 sequence (peptide, N-terminal acetyl and C-terminal amide, printed as AcN-...-CNH2): RARADADARARADADA
Experiment: 100 ng protein embedded in NFs, incubated in PBS 3 h at 37 C, Bradford assay of the supernatant

| binding | Substance |
| --- | --- |
| binds | bFGF (R&D Systems) (ligand) |
| binds | angiopoietin-1 (R&D Systems) (ligand) |

No constants are given. Whether binding was seen depends on the method and setting. Binding can be weak; no strength is given.
